Data reported in PubChem BioAssay AID588590 (National Center for Advancing Translational Sciences (NCATS), 2011).
Where “and” joins values, the source holds several entries; their conditions need not be identical. Equal entries are not always repeated. Out of some 390,000 compounds screened, about 4,000 (1%) were called active. The inconclusive results got no clear call from the source; some entries with a clear call stand among them for comparison. Calls come from the whole dose curve; as a rule, active = well fitted inhibition curve with a large enough effect; inconclusive = small, poorly fitted or top-dose-only effect, or another doubt; inactive = no such curve, though single readings can be large or run the other way. Where the call is inconclusive, the potency comes from a doubtful curve fit.

Protein sequences, listed by entry. Tags and fused reporters are not part of them. Lines headed by an entry give the natural chain unless they say otherwise; changes in a name come on top.
UniProt Q9UNA4: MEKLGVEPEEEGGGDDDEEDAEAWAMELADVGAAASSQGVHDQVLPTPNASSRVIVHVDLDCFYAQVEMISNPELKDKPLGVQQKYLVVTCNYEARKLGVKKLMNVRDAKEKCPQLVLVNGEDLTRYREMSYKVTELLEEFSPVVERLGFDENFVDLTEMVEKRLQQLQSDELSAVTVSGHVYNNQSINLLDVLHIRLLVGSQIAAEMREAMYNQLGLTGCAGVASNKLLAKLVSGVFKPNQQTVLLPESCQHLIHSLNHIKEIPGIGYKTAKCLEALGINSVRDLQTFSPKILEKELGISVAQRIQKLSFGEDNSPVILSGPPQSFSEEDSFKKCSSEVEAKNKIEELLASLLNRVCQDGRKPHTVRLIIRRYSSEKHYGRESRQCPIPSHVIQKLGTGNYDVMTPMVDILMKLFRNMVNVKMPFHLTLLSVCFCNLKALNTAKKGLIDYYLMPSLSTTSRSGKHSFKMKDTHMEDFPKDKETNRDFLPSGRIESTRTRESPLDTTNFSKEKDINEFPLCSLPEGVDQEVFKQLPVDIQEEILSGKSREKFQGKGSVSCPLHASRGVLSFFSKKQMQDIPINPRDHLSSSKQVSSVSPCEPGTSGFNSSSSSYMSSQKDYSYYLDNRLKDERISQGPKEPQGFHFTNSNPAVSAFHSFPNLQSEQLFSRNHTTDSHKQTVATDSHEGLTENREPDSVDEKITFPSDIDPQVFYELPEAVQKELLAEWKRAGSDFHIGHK

Molecular target: DNA polymerase iota (Homo sapiens) (UniProt Q9UNA4)
Assay: qHTS for Inhibitors of Polymerase Iota
Details: Pol iota fluorescent replication assay, 10 min; series mostly up to 115 µM; activity, negative = inhibition: at the top concentration
Method in brief: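 Pol iota at 10 nM preincubated 15 min with compounds at room temperature; reaction started with fluorescent substrate, 50 nM final. Fluorescence read kinetically at 0 and 10 min; buffer-only wells as negative control.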
Potency is the fitted concentration of half-maximal effect.

Structure (SMILES) | Potency | activity, negative = inhibition
Nc1c(C(=O)Nc2ccc(S(=O)(=O)N3CCCC3)cc2)sc2nc3ccc(OC(F)(F)F)cc3cc12 | inconclusive: 39.8 µM [inhibitor, single point] | 
O=C(O)CSc1c2c(nc3cc(C(=O)Nc4cccc(C(F)(F)F)c4)ccc13)CCC2 | inconclusive: 17.8 µM [inhibitor, full curve, poor fit] | 
O=C(COC(=O)c1cc(=O)[nH]c2ccccc12)Nc1nc(-c2ccccc2)cs1 | inconclusive: 25.1 µM [inhibitor, single point] | 
COc1ccc(/C=N/NC(=O)c2nn(-c3ccccc3)c(=O)c3c(N)scc23)cc1 | active: 12.6 µM | 
O=C(O)C1Cc2ccccc2-c2ccccc2C1 |  | inactive: -25.4%
CC(=O)Nc1ccc(N2CCCC2)cc1 | inconclusive: 28.2 µM [inhibitor, single point] | 
CCCN1Cc2cccc(C(=O)NCCc3cccc(C)c3)c2C1=O | inconclusive: 35.5 µM [inhibitor, partial curve, poor fit] | 
C=CCN(CC=C)c1cnn(-c2nc3ccccc3[nH]2)c(=O)c1Cl |  | inactive: 14.1%
CCCn1c(C(CO)Nc2nc(C)cs2)nc2ccccc21 (stereo not drawn) | inconclusive: 50.1 µM [inhibitor, partial curve] | 
C=CCn1c(=O)/c(=C/c2ccc(C)o2)s/c1=C(/C#N)C(=O)c1ccccc1 | inconclusive: 5.62 µM [inhibitor, partial curve] | 
O=C1/C(=C\c2ccncc2)SC(=S)N1C1CCCCC1 |  | inactive: 4.25%
COc1cccc(/C=C2\SC(=O)N(CC(=O)NC3C=CS(=O)(=O)C3)C2=O)c1 (stereo not drawn) | inconclusive: 31.6 µM [inhibitor, partial curve, poor fit] | 
CCOC(=O)c1cc2sccc2n1CC(=O)O | inconclusive: 89.1 µM [inhibitor, partial curve, poor fit] | 
O=C1NC(=O)/C(=C\c2ccc(O)cc2O)S1 | inconclusive: 8.91 µM [inhibitor, partial curve, poor fit] | 
COc1ccc(CNC(=S)NCc2ccc(OC)cc2)cc1 |  | inactive: -14.6%
N#Cc1c(SCC(=O)Nc2cccc(C(F)(F)F)c2)sc2c(O)cc(=O)[nH]c12 | inconclusive: 2.24 µM [inhibitor, full curve, poor fit] | 
CCOc1ccc2nc(NC(=O)CCC(=O)c3cccs3)sc2c1 | inconclusive: 11.2 µM [inhibitor, full curve, poor fit] | 
CC1S/C(=C(\C#N)C(N)=O)N(c2ccc(F)cc2)C1=O (stereo not drawn) | inconclusive: 3.16 µM [inhibitor, partial curve, poor fit] | 
Cc1cc(NC(=O)c2cc([N+](=O)[O-])cc([N+](=O)[O-])c2C)no1 | active: 56.2 µM | 
CC(C)N1C2OC(C3OC4C(O3)N(C(C)C)S(=O)(=O)N4C(C)C)OC2N(C(C)C)S1(=O)=O (stereo not drawn) |  | inactive: 17.4%
COc1ccc(C(=O)Nc2ccc(C(=O)OCc3cc(=O)n4nc(C5CC5)sc4n3)cc2)cc1 | inconclusive: 89.1 µM [inhibitor, single point] | 
CN(C(=O)c1ccncc1)C1CC(C)(C)N(O)C(C)(C)C1 |  | inactive: -4.07%

Structure (SMILES) | Potency | activity, negative = inhibition
CN(C)c1ccc(/C=C/c2nccc3ccccc23)cc1 |  | inactive: 21.1%
CC(=O)N1CCN=C1SCc1cccc(F)c1 | inconclusive: 35.5 µM [inhibitor, single point] | 
CCOC(=O)Cc1csc(NC(=O)/C=C/c2ccc(Cl)cc2)n1 | inconclusive: 79.4 µM [inhibitor, single point] | 
CN(Cc1ccccc1)C(=O)CCC(=O)N(C)Cc1ccccc1 | inconclusive: 89.1 µM [inhibitor, single point] | 
Cc1ccc(-c2nn3c(C)nnc3s2)cc1NC(=O)c1ccc(-c2cccc(Cl)c2)o1 | active: 50.1 µM and active: 31.6 µM | 
O=c1cc(/N=C/c2coc3c(ccc4ccccc43)c2=O)[nH]c(=S)[nH]1 | inconclusive: 15.8 µM [inhibitor, full curve, poor fit] | 
Cc1ccc(SCCC(=O)NCCSCc2ccccc2C)cc1 | inconclusive: 3.16 µM [inhibitor, partial curve, poor fit] | 
CC(=O)n1cc(N(C(=O)CCl)c2ccccc2)c2ccccc21 |  | inactive: -15.2%
Cc1ccc(CNC(=O)CC(C)S(=O)(=O)c2ccc3c(c2)NC(=O)CS3)o1 (stereo not drawn) | inconclusive: 22.4 µM [inhibitor, partial curve, poor fit] | 
O=C(Nc1nnc(SCC(=O)N2CCCC2)s1)C1CC(=O)N(c2ccc(F)cc2)C1 (stereo not drawn) | inconclusive: 35.5 µM [inhibitor, partial curve, poor fit] | 
N#CC1=C2SCN(Cc3ccco3)CN2C(=O)CC1c1cccc2ccccc12 (stereo not drawn) | inconclusive: 15.8 µM [inhibitor, partial curve, poor fit] | 
O=c1c(=O)n(O)c2ccccc2n1O |  | inactive: -25.8%
CCOc1ncccc1C(=O)Nc1cc(S(=O)(=O)N(CC)CC)ccc1N1CCOCC1 | inconclusive: 39.8 µM [inhibitor, single point] | 
O=S1(=O)CCN2N=C(C3CC3)SC2=N1 |  | inactive: 95%
O=C(CNc1cccc([N+](=O)[O-])c1)NCCCc1ccccc1 | inconclusive: 63.1 µM [inhibitor, partial curve, poor fit] | 
CCOc1ccc(CNC(=O)CCCc2cn(C)c3ccccc23)cc1OC | inconclusive: 0.708 µM [inhibitor, full curve, poor fit] | 
C/C(=N\Nc1ccc([N+](=O)[O-])cc1)c1ccc(N)cc1 |  | inactive: 17.4%
CCSc1ncc(Cl)c(C(=O)Nc2sc3c(c2C(=O)OC)CCCC3)n1 |  | inactive: 25.7%
O=C(/C=C\c1cccs1)c1c(O)ccc2ccc(=O)oc12 | inconclusive: 89.1 µM [inhibitor, partial curve] | 
O=C(COC(=O)c1ccc([N+](=O)[O-])s1)NC(=O)NCc1ccccc1 | inconclusive: 63.1 µM [inhibitor, partial curve, poor fit] | 
O=S(=O)(c1ccc2c(c1)OCCO2)N1CCNCC1 | inconclusive: 25.1 µM [inhibitor, partial curve, poor fit] | 

A section from further up, as a working copy:
Structure (SMILES) | Potency | activity, negative = inhibition
CC(=O)n1cc(N(C(=O)CCl)c2ccccc2)c2ccccc21 |  | inactive: -15.2%
Cc1ccc(CNC(=O)CC(C)S(=O)(=O)c2ccc3c(c2)NC(=O)CS3)o1 (stereo not drawn) | inconclusive: 22.4 µM [inhibitor, partial curve, poor fit] | 
O=C(Nc1nnc(SCC(=O)N2CCCC2)s1)C1CC(=O)N(c2ccc(F)cc2)C1 (stereo not drawn) | inconclusive: 35.5 µM [inhibitor, partial curve, poor fit] | 
